Results on 1 molecule are retold here after US20050277656A1, “Combination comprising docetaxel and a CDK inhibitor” (Cyclacel Limited, priority 2002, published 2005).

The test system of the assay is PKC.

Where only a bound is given, the exact number is not on record here.

By IC50 is commonly meant the concentration that gives 50% inhibition. A higher IC50 goes with lower potency. The molecule `CC[C@H](CO)Nc1nc(NCc2ccccc2)c2ncn(C(C)C)c2n1` [roscovitine, 6-benzylamino-2-[(R)-1-ethyl-2-hydroxyethylamino]-9-isopropylpurine] had an IC50 above 50 µM.
